For this test, the target named is T1, Transmembrane and ubiquitin-like domain-containing protein 1 (Tmub1/HOPS) (mouse (endogenous in mouse brain)) (UniProt Q9JMG3).
T1 sequence: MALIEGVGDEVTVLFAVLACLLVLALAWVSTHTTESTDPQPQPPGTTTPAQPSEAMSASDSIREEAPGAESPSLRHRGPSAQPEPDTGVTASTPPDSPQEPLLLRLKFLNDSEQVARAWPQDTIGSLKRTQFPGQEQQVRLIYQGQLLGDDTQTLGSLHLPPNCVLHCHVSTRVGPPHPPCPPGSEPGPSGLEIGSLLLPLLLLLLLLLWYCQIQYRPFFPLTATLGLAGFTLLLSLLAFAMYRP
The test is described as follows: co-IP; whole mouse brain lysate (20 mM Tris-HCl pH 7.4, 100 mM NaCl, 1% Triton X-100), 10 ug anti-Tmub1/HOPS rabbit polyclonal antibody or control rabbit IgG on 2 mg supernatant, protein G-Sepharose, 4 C; endogenous proteins, detected by blot.

No constants are given. Whether binding was seen depends on the method and setting. Binding seen in cells or lysates may run through a third protein.

B1: Syntaxin 13 (protein, UniProt Q9ER00 1-274)
chain: MSYGPLDMYRNPGPSGPQPRDFNSIIQTCSGNIQRISQATAQIKNLMSQLGTKQDSSKLQENLQQLQHSTNQLAKETNELLKELGSLPLPLSASEQRQQKLQKERLMNDFSSALNNFQVVQRKVSEKEKESIARARAGSRLSAEDRQREEQLVSFDSHEEWNQMQSQEEEAAITEQDLELIKERETAIRQLEADILDVNQIFKDLAMMIHDQGDLIDSIEANVESSEVHVERATDQLQRAAYYQKKSRKKMCILVLVLSVIVTVLVVVIWVASK
For B1, the binding entry is “no binding”.

The values above are taken from PMC2474703.
